Measurements: the supplement of paper PMC10849652
The other results are listed elsewhere or left out.

Protein sequences, listed by entry. Tags and fused reporters are not part of them. Lines headed by an entry give the natural chain unless they say otherwise; changes in a name come on top.
UniProt Q8TEH3: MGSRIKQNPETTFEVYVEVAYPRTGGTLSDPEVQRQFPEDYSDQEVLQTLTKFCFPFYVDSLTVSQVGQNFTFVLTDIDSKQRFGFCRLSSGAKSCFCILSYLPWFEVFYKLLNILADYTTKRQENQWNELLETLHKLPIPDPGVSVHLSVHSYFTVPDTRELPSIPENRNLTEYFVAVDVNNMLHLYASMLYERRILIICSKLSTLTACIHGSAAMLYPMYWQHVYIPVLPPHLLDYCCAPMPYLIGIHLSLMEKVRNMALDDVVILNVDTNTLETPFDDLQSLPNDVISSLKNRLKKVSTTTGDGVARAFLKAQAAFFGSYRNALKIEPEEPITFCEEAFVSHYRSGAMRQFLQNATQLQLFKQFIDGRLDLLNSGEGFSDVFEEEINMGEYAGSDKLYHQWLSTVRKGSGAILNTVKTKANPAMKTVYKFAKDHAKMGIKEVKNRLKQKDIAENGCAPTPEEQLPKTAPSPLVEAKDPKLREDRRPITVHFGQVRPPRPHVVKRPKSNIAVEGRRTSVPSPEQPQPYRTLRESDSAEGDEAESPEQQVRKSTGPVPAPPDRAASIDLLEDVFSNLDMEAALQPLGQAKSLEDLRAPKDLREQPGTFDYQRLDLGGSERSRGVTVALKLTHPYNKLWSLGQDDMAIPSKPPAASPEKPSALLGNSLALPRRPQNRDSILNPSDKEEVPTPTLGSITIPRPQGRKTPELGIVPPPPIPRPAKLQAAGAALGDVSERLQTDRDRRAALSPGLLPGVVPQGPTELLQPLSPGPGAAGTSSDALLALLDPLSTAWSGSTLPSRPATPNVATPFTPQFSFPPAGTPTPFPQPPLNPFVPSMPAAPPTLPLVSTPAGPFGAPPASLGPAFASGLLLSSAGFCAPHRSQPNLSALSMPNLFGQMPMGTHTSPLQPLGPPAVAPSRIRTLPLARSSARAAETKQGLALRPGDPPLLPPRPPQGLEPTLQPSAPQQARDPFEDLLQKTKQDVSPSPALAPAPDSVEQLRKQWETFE
UniProt Q9NUL7: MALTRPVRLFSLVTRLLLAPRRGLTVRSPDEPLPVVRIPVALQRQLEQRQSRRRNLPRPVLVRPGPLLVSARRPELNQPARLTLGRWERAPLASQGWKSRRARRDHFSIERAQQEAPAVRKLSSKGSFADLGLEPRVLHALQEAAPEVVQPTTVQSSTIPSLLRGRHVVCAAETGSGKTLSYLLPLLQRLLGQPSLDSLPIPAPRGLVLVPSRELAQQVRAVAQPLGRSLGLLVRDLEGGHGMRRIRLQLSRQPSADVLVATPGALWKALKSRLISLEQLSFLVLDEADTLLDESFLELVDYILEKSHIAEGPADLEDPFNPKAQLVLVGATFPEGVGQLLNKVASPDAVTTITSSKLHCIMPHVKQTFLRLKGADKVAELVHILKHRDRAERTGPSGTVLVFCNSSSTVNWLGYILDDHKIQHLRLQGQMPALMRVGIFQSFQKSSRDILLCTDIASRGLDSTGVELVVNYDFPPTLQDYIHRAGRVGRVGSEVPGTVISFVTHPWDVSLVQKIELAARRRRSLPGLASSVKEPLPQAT
UniProt Q8IV53: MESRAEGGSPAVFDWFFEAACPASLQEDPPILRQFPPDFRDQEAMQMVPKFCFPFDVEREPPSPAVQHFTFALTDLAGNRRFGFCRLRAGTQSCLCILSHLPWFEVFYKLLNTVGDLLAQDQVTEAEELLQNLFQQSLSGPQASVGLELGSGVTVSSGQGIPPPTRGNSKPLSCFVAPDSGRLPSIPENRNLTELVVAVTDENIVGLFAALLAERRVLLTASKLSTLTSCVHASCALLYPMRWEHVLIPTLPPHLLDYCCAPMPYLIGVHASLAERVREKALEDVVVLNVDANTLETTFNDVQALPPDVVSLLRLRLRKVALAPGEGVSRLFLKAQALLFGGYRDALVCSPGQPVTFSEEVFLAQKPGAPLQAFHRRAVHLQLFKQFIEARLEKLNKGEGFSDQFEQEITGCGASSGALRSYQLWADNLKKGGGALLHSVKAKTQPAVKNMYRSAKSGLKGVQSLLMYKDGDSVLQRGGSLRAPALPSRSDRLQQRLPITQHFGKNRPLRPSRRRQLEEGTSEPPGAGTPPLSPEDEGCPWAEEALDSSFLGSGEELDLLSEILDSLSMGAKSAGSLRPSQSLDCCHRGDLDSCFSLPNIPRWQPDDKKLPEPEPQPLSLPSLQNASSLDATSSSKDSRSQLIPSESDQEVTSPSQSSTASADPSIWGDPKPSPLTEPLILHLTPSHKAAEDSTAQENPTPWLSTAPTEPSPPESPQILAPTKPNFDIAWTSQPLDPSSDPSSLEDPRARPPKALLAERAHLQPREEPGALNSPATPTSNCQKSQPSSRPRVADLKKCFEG
UniProt O95057: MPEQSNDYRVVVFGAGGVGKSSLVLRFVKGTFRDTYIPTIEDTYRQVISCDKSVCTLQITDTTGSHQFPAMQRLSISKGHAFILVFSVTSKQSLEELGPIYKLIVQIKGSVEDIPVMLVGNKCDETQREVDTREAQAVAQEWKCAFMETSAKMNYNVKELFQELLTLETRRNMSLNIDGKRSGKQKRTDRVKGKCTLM
UniProt Q9H4E7, whole entry, looked up: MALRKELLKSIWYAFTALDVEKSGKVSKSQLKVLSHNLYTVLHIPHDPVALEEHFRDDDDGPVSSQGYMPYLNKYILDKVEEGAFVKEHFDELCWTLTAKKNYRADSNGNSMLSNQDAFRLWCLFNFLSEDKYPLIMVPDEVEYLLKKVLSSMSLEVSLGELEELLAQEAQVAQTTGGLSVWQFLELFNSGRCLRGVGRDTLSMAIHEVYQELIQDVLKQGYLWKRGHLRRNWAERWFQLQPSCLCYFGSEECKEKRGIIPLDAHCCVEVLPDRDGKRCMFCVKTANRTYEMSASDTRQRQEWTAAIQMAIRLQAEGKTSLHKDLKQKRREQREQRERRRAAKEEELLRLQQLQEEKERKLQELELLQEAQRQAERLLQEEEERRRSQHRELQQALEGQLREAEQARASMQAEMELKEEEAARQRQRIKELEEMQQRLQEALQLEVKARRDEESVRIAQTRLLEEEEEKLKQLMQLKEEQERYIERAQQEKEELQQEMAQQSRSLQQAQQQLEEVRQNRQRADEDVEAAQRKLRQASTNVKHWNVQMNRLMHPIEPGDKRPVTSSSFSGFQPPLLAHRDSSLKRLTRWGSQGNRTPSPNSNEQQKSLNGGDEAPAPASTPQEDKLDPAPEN
UniProt Q96HY7: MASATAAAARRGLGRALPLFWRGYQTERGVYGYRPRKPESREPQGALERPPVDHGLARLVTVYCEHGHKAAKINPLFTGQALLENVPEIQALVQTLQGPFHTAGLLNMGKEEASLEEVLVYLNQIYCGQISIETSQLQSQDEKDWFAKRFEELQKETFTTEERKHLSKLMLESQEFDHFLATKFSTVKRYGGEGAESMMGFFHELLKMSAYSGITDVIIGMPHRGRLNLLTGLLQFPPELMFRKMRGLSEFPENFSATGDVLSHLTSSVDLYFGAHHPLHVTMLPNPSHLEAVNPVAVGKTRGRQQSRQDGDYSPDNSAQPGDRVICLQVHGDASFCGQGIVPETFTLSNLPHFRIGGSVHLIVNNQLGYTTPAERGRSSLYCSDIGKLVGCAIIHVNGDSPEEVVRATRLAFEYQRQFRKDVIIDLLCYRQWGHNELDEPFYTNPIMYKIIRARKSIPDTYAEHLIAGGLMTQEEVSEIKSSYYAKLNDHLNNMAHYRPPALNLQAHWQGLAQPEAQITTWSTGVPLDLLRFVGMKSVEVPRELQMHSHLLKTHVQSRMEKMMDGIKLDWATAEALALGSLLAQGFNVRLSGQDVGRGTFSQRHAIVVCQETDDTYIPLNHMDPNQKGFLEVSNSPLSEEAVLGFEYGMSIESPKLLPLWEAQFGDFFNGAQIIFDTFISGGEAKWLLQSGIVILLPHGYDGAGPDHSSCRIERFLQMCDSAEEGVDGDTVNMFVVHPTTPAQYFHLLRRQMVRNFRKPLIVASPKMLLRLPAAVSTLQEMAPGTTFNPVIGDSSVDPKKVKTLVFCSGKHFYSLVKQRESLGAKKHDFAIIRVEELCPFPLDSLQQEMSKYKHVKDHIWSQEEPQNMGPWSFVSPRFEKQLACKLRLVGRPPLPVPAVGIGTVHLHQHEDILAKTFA
UniProt O94760: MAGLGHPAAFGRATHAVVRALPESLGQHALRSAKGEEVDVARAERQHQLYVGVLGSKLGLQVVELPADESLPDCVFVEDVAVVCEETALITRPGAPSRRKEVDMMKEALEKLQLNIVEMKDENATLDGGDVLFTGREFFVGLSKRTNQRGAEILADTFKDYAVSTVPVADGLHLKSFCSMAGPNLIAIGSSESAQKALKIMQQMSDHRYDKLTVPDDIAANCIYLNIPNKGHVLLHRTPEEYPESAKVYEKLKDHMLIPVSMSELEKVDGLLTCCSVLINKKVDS
UniProt Q9UHL0: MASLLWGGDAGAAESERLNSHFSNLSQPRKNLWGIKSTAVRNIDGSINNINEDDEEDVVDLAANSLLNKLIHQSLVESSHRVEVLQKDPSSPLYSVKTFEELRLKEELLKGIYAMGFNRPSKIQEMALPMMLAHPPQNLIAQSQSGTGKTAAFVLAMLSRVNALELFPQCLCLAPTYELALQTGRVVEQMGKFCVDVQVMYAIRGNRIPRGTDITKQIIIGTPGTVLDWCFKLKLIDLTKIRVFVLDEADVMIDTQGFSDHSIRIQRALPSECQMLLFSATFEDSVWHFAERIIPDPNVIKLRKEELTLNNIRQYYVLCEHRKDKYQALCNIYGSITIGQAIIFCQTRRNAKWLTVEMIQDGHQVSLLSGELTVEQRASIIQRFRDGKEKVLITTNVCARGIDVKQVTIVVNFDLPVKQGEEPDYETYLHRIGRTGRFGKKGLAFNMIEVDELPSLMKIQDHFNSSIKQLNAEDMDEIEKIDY
UniProt P51530: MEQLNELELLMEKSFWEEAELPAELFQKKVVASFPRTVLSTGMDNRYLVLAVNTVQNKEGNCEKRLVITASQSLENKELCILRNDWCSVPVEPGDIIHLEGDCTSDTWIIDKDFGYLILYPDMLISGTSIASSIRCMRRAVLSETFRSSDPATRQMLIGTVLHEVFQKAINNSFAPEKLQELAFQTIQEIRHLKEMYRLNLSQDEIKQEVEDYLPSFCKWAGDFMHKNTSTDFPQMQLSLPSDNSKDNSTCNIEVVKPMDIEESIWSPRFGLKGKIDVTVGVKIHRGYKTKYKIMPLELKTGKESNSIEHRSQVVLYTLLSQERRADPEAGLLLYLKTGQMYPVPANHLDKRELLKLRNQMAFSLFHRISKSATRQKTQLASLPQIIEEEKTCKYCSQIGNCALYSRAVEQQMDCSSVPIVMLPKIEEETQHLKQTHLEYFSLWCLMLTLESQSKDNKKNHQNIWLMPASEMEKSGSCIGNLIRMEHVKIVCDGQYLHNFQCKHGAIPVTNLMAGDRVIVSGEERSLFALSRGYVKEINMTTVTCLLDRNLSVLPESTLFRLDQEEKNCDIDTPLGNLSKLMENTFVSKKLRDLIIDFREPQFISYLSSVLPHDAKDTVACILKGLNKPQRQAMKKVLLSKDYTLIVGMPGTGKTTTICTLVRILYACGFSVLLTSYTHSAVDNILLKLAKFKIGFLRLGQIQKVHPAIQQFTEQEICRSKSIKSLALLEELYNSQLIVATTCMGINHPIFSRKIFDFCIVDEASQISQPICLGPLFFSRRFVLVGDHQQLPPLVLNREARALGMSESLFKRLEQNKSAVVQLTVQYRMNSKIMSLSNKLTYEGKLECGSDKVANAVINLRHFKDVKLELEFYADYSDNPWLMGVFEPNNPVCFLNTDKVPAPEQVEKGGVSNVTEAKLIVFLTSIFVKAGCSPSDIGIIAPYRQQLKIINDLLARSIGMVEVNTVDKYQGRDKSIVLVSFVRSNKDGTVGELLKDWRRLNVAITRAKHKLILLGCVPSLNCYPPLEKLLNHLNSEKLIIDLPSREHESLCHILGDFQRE
UniProt P52429: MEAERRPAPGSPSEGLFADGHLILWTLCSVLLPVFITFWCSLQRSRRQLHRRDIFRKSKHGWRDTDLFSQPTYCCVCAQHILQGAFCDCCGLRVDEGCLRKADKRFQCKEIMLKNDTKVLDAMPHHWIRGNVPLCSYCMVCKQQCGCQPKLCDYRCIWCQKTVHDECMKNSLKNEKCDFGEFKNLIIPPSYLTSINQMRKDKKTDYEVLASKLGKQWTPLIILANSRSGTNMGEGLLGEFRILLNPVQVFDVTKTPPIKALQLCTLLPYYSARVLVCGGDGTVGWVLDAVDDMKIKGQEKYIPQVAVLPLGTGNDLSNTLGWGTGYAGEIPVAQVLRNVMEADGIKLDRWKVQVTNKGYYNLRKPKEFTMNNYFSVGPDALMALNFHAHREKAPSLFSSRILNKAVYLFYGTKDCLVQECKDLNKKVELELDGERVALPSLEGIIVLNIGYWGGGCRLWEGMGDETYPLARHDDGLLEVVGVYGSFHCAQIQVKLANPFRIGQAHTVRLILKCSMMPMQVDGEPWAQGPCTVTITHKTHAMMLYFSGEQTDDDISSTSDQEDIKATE

Tests used:
Experiment in all cases: log2 fold change, soluble protein after heating vs DMSO (PISA); higher = thermal stabilisation; K562 cells, 10 uM, 30 min; active = over 0.2 and 3.5 SD of the protein, either way, in both replicates (recomputed)
saracatinib = compound: CN1CCN(CCOc2cc(OC3CCOCC3)c3c(Nc4c(Cl)ccc5c4OCO5)ncnc3c2)CC1 [saracatinib]
Outline: (§1)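 K562 cells at 2×10^6 cells/mL were given 10 μM compound for 30 min. Aliquots then went through 3 min of heating across 48°C-58°C, were pooled, and were extracted in PBS with 0.5% NP-40 at 4°C, and the supernatant after 21,000xg for 90 min was quantified by TMTpro 16plex LC-MS/MS with channel sums equalised. Thermal stability relative to control samples, from duplicates, is given as log2 fold change.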

sotrastaurin = compound: CN1CCN(c2nc(C3=C(c4c[nH]c5ccccc45)C(=O)NC3=O)c3ccccc3n2)CC1 [sotrastaurin]
Outline: as §1

Tubastatin A = compound: CN1CCc2c(c3ccccc3n2Cc2ccc(C(=O)NO)cc2)C1 [Tubastatin A]
Outline: as §1

[1] = compound: CNC(=O)C1=CC=CC=C1NC2=NC(=NC=C2Cl)NC3=C(C=C(C=C3)N4CCOCC4)OC
Outline: as §1

defactinib = compound: CNC(=O)c1ccc(Nc2ncc(C(F)(F)F)c(NCc3nccnc3N(C)S(C)(=O)=O)n2)cc1 [defactinib]
Outline: as §1

rucaparib = compound: CNCc1ccc(-c2[nH]c3cc(F)cc4c3c2CCNC4=O)cc1 [rucaparib]
Outline: as §1

[2] = compound: CNc1nc(-c2ccc3c(N)n[nH]c3c2)cc(N2C[C@@H](C(=O)NC3CCCCC3)CC[C@H]2C)n1
Outline: as §1

encorafenib = compound: COC(=O)N[C@@H](C)CNc1nccc(-c2cn(C(C)C)nc2-c2cc(Cl)cc(NS(C)(=O)=O)c2F)n1 [encorafenib]
Outline: as §1

[3] = compound: COC(=O)[C@H](CCSC)NC(=O)C1=C(C=C(C=C1)NC[C@H](CS)N)C2=CC=CC=C2
Outline: as §1

alvocidib = compound: CN1CC[C@H](c2c(O)cc(O)c3c(=O)cc(-c4ccccc4Cl)oc23)[C@H](O)C1 [alvocidib]
Outline: as §1

Measured: log2 fold change

DDX4 (UniProt Q9NQI0)
inactive: saracatinib -0.342 | sotrastaurin 0.209 | Tubastatin A 0.102 | [1] -0.097 | defactinib 0.11 | rucaparib 0.543 | [2] -0.095 | encorafenib 0.121 | [3] 0.067

DMXL1 (UniProt Q9Y485)
inactive: saracatinib 0.014 | sotrastaurin 0.001 | Tubastatin A -0.011 | [1] -0.065 | defactinib -0.035 | rucaparib 0.076 | [2] -0.017 | encorafenib 0.043 | [3] -0.047

DNAAF5 (UniProt Q86Y56)
inactive: saracatinib -0.084 | sotrastaurin -0.22 | alvocidib 0.217 | Tubastatin A 0.08 | defactinib 0.058 | rucaparib 0.398 | [2] 0.138 | encorafenib 0.353 | [3] -0.17

DDX18 (UniProt Q9NVP1)
inactive: saracatinib -0.286 | sotrastaurin -0.01 | alvocidib 0.156 | Tubastatin A 0.107 | rucaparib -0.018 | [2] 0.218 | encorafenib -0.155

DIAPH1 (UniProt O60610)
inactive: saracatinib -0.104 | sotrastaurin -0.276 | Tubastatin A 0.086 | [1] 0.044 | defactinib -0.039 | rucaparib 0.219 | [2] 0.125 | encorafenib 0.215 | [3] -0.12

DDOST (UniProt P39656)
inactive: saracatinib -0.015 | sotrastaurin -0.03 | Tubastatin A 0.021 | [1] 0.008 | defactinib 0.042 | rucaparib -0.029 | [2] -0.005 | encorafenib 0.059 | [3] -0.002

DENND4A isoform 2 (UniProt Q7Z401)
inactive: saracatinib -0.102 | sotrastaurin -0.239 | alvocidib 0.014 | Tubastatin A 0.022 | defactinib -0.032 | rucaparib 0.016 | [2] 0.046 | encorafenib 0.186 | [3] 0.03

DENND10 (UniProt Q8TCE6)
inactive: saracatinib 0.035 | sotrastaurin 0.015 | Tubastatin A 0.007 | [1] -0.039 | defactinib -0.058 | rucaparib -0.065 | [2] -0.035 | encorafenib 0.008 | [3] -0.048

DHX16 (UniProt O60231)
inactive: saracatinib 0.024 | sotrastaurin -0.037 | Tubastatin A -0.001 | [1] -0.042 | defactinib -0.035 | rucaparib -0.027 | [2] 0.028 | encorafenib 0.019 | [3] -0.013

DERL2 (UniProt Q9GZP9)
inactive: saracatinib 0.024 | sotrastaurin -0.01 | alvocidib -0.077 | Tubastatin A 0.062 | defactinib -0.063 | [2] 0.094 | [3] 0.07

DECR2 (UniProt Q9NUI1)
inactive: saracatinib -0.065 | sotrastaurin 0.021 | Tubastatin A -0.043 | [1] -0.122 | defactinib -0.069 | rucaparib 0.01 | [2] 0.061 | encorafenib -0.07 | [3] -0.079

DHCR7 (UniProt Q9UBM7)
inactive: saracatinib 0.412 | sotrastaurin -0.033 | Tubastatin A 0.087 | [1] -0.181 | defactinib -0.01 | rucaparib 0.143 | [2] 0.087 | encorafenib 0.084 | [3] -0.048

DHX40 (UniProt Q8IX18)
inactive: saracatinib 0.069 | sotrastaurin -0.025 | Tubastatin A 0.053 | [1] -0.043 | defactinib -0.163 | rucaparib 0.087 | [2] 0.013 | encorafenib 0.068 | [3] -0.039

DNAH11 (UniProt Q96DT5)
inactive: saracatinib 0.301 | sotrastaurin 0.317 | Tubastatin A -0.083 | [1] -0.043 | defactinib -0.11 | rucaparib 0.162 | [2] 0.061 | encorafenib 0.152 | [3] 0.049

DFFB (UniProt O76075)
inactive: saracatinib 0.017 | sotrastaurin 0.052 | Tubastatin A 0.07 | [1] 0.009 | defactinib 0.024 | rucaparib 0.049 | [2] -0.016 | encorafenib -0.019 | [3] 0.033

DDX47 (UniProt Q9H0S4)
inactive: saracatinib -0.168 | sotrastaurin -0.071 | alvocidib 0.455 | defactinib -0.066 | [2] 0.177 | [3] 0.062

DGKA (UniProt P23743)
inactive: saracatinib -0.124 | sotrastaurin 0.168 | [1] -0.047 | defactinib -0.49 | [2] -0.079 | [3] -0.172

DENND1A isoform 6 (UniProt Q8TEH3)
inactive: Tubastatin A -0.018 | defactinib -0.081 | [3] -0.024

DMBT1 isoform 6 (UniProt Q9UGM3)
inactive: sotrastaurin -0.007

DLK1 (UniProt P80370)
inactive: saracatinib 0.021 | defactinib -0.08 | rucaparib -0.023 | [2] -0.09 | encorafenib -0.032 | [3] 0.159

DDB1 isoform 2 (UniProt Q16531)
inactive: sotrastaurin 0.053 | rucaparib -0.067 | encorafenib -0.041

DLC1 (UniProt Q96QB1)
inactive: defactinib -0.018 | rucaparib -0.055 | encorafenib -0.168 | [3] -0.023

DDX28 (UniProt Q9NUL7)
inactive: alvocidib 0.165

DENND1C (UniProt Q8IV53)
inactive: sotrastaurin -0.075 | [1] -0.154 | defactinib -0.018 | [3] 0.127

DIRAS1 (UniProt O95057)
inactive: Tubastatin A 0.115

DDR1 isoform 5 (UniProt Q08345)
inactive: alvocidib -0.115 | [1] -0.282 | defactinib -0.245 | [3] -0.069

DEF8 (UniProt Q6ZN54)
inactive: [1] 0.167 | defactinib -0.023 | [3] 0.042

DEF6 (UniProt Q9H4E7)
inactive: alvocidib 0.223 | Tubastatin A -0.004

16 successive records already listed, for reference:
DHCR7 (UniProt Q9UBM7)
inactive: saracatinib 0.412 | sotrastaurin -0.033 | Tubastatin A 0.087 | [1] -0.181 | defactinib -0.01 | rucaparib 0.143 | [2] 0.087 | encorafenib 0.084 | [3] -0.048

DHX40 (UniProt Q8IX18)
inactive: saracatinib 0.069 | sotrastaurin -0.025 | Tubastatin A 0.053 | [1] -0.043 | defactinib -0.163 | rucaparib 0.087 | [2] 0.013 | encorafenib 0.068 | [3] -0.039

DNAH11 (UniProt Q96DT5)
inactive: saracatinib 0.301 | sotrastaurin 0.317 | Tubastatin A -0.083 | [1] -0.043 | defactinib -0.11 | rucaparib 0.162 | [2] 0.061 | encorafenib 0.152 | [3] 0.049

DFFB (UniProt O76075)
inactive: saracatinib 0.017 | sotrastaurin 0.052 | Tubastatin A 0.07 | [1] 0.009 | defactinib 0.024 | rucaparib 0.049 | [2] -0.016 | encorafenib -0.019 | [3] 0.033

DDX47 (UniProt Q9H0S4)
inactive: saracatinib -0.168 | sotrastaurin -0.071 | alvocidib 0.455 | defactinib -0.066 | [2] 0.177 | [3] 0.062

DGKA (UniProt P23743)
inactive: saracatinib -0.124 | sotrastaurin 0.168 | [1] -0.047 | defactinib -0.49 | [2] -0.079 | [3] -0.172

DENND1A isoform 6 (UniProt Q8TEH3)
inactive: Tubastatin A -0.018 | defactinib -0.081 | [3] -0.024

DMBT1 isoform 6 (UniProt Q9UGM3)
inactive: sotrastaurin -0.007

DLK1 (UniProt P80370)
inactive: saracatinib 0.021 | defactinib -0.08 | rucaparib -0.023 | [2] -0.09 | encorafenib -0.032 | [3] 0.159

DDB1 isoform 2 (UniProt Q16531)
inactive: sotrastaurin 0.053 | rucaparib -0.067 | encorafenib -0.041

DLC1 (UniProt Q96QB1)
inactive: defactinib -0.018 | rucaparib -0.055 | encorafenib -0.168 | [3] -0.023

DDX28 (UniProt Q9NUL7)
inactive: alvocidib 0.165

DENND1C (UniProt Q8IV53)
inactive: sotrastaurin -0.075 | [1] -0.154 | defactinib -0.018 | [3] 0.127

DIRAS1 (UniProt O95057)
inactive: Tubastatin A 0.115

DDR1 isoform 5 (UniProt Q08345)
inactive: alvocidib -0.115 | [1] -0.282 | defactinib -0.245 | [3] -0.069

DEF8 (UniProt Q6ZN54)
inactive: [1] 0.167 | defactinib -0.023 | [3] 0.042

Carrying on.

DMTN isoform 2 (UniProt Q08495)
inactive: Tubastatin A 0.149

DERPC (UniProt P0CG12)
inactive: saracatinib -0.168 | [1] 0.08 | defactinib -0.153 | rucaparib -0.001 | [2] -0.071 | encorafenib -0.109 | [3] 0.063

DDX11L8 (UniProt A8MPP1)
inactive: saracatinib 0.026 | alvocidib -0.066 | [2] 0.089

DDHD1 (UniProt Q8NEL9)
inactive: saracatinib -0.354 | sotrastaurin -0.032 | [1] 0.006 | [2] -0.159

DET1 isoform 2 (UniProt Q7L5Y6)
inactive: alvocidib 0.032

DHTKD1 (UniProt Q96HY7)
inactive: Tubastatin A 0.103 | [1] -0.166 | rucaparib -0.198 | encorafenib 0.196

DDAH1 (UniProt O94760)
inactive: saracatinib -0.041 | alvocidib -0.012 | Tubastatin A -0.073 | [1] -0.027 | defactinib 0.002 | rucaparib -0.134 | [2] 0.003 | encorafenib 0.024 | [3] 0.009

DDX25 (UniProt Q9UHL0)
inactive: saracatinib 0.123 | alvocidib -0.127 | Tubastatin A 0.051 | defactinib -0.301 | rucaparib -0.092 | [2] 0.135 | encorafenib 0.016 | [3] 0.008

DDX55 (UniProt Q8NHQ9)
inactive: sotrastaurin -0.339 | Tubastatin A 0.157 | defactinib 0.181 | rucaparib 0.117 | encorafenib 0.003 | [3] -0.014

DMKN (UniProt Q6E0U4)
inactive: Tubastatin A -0.377 | [1] 0.242 | defactinib -0.117 | rucaparib 0.225 | encorafenib -0.313 | [3] -0.012

DNA2 (UniProt P51530)
inactive: sotrastaurin 0.437 | defactinib -0.183 | rucaparib 0.036 | encorafenib -0.113 | [3] -0.04

DHX32 (UniProt Q7L7V1)
inactive: Tubastatin A -0.126 | rucaparib 0.331 | encorafenib -0.225

DDX39B (UniProt H0Y400)
inactive: [1] 0.086

DECR1 (UniProt E5RJD2)
inactive: saracatinib -0.048 | [2] -0.067

DDX11 (UniProt Q96FC9)
inactive: saracatinib -0.016 | sotrastaurin -0.248 | Tubastatin A -0.034 | [1] -0.035 | defactinib -0.052 | [2] -0.005 | [3] 0.118

DHX37 (UniProt Q8IY37)
inactive: [1] 0.189

DESI1 (UniProt Q6ICB0)
inactive: saracatinib 0.012 | alvocidib 0.029 | Tubastatin A 0.061 | [1] 0.068 | defactinib 0.195 | rucaparib -0.167 | [2] 0.042 | encorafenib 0.118 | [3] 0.381

DFFA isoform 2 (UniProt O00273)
inactive: saracatinib -0.149 | [1] -0.054 | [2] 0.034

DEPDC5 (UniProt O75140)
inactive: saracatinib -0.107 | [2] 0.069

DESI2 (UniProt Q9BSY9)
inactive: sotrastaurin -0.051 | Tubastatin A -0.038 | [1] -0.057 | rucaparib -0.129 | encorafenib 0.026

DHX34 (UniProt Q14147)
inactive: saracatinib -0.12 | Tubastatin A -0.105 | [1] -0.216 | rucaparib -0.076 | [2] -0.064 | encorafenib -0.004

DGKE (UniProt P52429)
inactive: sotrastaurin -0.136 | alvocidib 0.079 | Tubastatin A -0.062 | [1] 0.164

DDX52 (UniProt Q9Y2R4)
inactive: saracatinib -0.263 | alvocidib 0.261 | [2] -0.138

DHPS (UniProt M0R1T2)
inactive: sotrastaurin -0.06

DIEXF (UniProt Q68CQ4)
inactive: saracatinib -0.083 | alvocidib -0.027 | defactinib -0.252 | [2] 0.023 | [3] 0.038

DDX10 (UniProt Q13206)
inactive: saracatinib -0.136 | [1] -0.103 | [2] -0.247

DEAF1 (UniProt O75398)
inactive: saracatinib -0.339 | [2] -0.001

DHRSX (UniProt Q8N5I4)
inactive: alvocidib -0.048 | [1] -0.054 | defactinib -0.052 | [3] -0.017
